Data reported in patent US20090311278A1, “Novel teleost derived antimicrobial polypeptides” (THE UNIVERSITY OF GEORGIA RESEARCH FOUNDATION, published 2009).
For some assays here: The comparison behind a weaker result is the experiment's own reference, which may not be listed here. For some assays here: Results from cells or extracts need not show a direct contact. For some assays here: A negative result means that nothing was seen under these conditions. For some assays here: Where a protein sequence is shown, tags need not be part of it.

Legend:
[1] = tested on: T1, NCAMP-1 on the surface of nonspecific cytotoxic cells (Ictalurus punctatus); experiment: competition with a labelled probe; details: protein on the cell surface, single-stranded DNA
T1 sequence: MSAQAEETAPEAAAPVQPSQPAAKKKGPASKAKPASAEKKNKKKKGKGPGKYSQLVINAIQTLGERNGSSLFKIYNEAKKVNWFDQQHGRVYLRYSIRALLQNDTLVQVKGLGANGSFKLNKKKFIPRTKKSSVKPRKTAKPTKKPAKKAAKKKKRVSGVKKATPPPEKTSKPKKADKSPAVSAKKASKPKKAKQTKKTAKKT

[2] = tested on: T2, NCAMP-1 (native 29 kDa NCC membrane protein) (Ictalurus punctatus); experiment: binding assay; details: protein in an extract, single-stranded DNA
T2 sequence: T1 sequence

[3] = tested on: NCAMP-1 (histone H1X-like ODN binding protein), recombinant (Ictalurus punctatus); experiment: binding assay; details: Southwestern blot; minimal binding, used as negative control; purified recombinant protein; protein details: C-terminal 6xHis (pET-21b, E. coli); label: biotin; single-stranded DNA

Sequence | binding result ([1]; reciprocal competition with anti-NCAMP-1 IgG on NCC, flow cytometry, label: biotin (3')) | binding result ([2]; Southwestern blot of NCC membrane lysate, 14, 16, 18 and 29 kDa bands, label: biotin (3')) | binding result ([1]; dA20 does not prevent anti-NCAMP-1 binding to NCC, label: biotin) | binding result ([2]; ligand blot of NCC membranes, 29 kDa band absent, label: biotin) | binding result [3]
TGCTGCTTGTGCTTGTGCTT [GpC ODN] | binds | binds | – | – | –
AAAAAAAAAAAAAAAAAAAA [dA20] | – | – | no binding | no binding | binds more weakly
